Here are results for six sequences from paper PMC8494340.

Amino acid sequences for entries named in this document (tags omitted). Residues count along the entry.
UniProt P28159, 98-523: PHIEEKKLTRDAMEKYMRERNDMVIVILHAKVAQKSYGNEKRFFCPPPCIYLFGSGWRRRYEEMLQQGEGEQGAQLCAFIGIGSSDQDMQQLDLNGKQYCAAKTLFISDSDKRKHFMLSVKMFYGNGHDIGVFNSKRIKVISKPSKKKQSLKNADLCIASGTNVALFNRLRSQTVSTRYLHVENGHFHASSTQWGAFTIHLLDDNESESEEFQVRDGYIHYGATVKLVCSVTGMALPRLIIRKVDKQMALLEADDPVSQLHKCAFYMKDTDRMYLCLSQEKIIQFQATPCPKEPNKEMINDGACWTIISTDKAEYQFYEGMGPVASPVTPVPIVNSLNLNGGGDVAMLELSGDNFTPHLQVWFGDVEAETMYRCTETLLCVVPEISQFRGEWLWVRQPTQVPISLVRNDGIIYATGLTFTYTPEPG

For series [1], the target named is Su(H) (CSL) (Drosophila) (UniProt P28159). Nature of the series: competition with a labelled probe. The note with it: unlabeled 8.75-140 nM vs 3.5 nM labeled 2xCSL17, 40 nM Su(H); EMSA, room temperature 20 min (temporal competition: RT 10 min then 4 C); salt and pH not given (refs 63,64); labeled probe 3.5 nM in competition assays; recombinant protein; residues 98-523.

Series [2] shares this target. Nature of the series: EMSA. To be noted: room temperature 20 min (temporal competition: RT 10 min then 4 C), salt and pH not given (refs 63,64), labeled probe 3.5 nM in competition assays, recombinant protein, residues 98-523.
In series [3] the test system is Su(H) (CSL) + NICD (Notch intracellular domain) + Mastermind (Mam). Nature of the series: EMSA. To be noted: 2 uM NICD/Mam, Su(H) 2.5-160 nM, salt and pH not given (refs 63,64), labeled probe 3.5 nM in competition assays, recombinant protein.
A further series relates to Su(H) (CSL) + Hairless. Nature of the series: EMSA. To be noted: 2 uM Hairless, Su(H) 2.5-160 nM, additive, room temperature 20 min (temporal competition: RT 10 min then 4 C), salt and pH not given (refs 63,64), labeled probe 3.5 nM in competition assays, recombinant protein. A general note: Mobility shift assays separate free from complexed probe on a gel.
[4] abbreviates: Su(H) 0.94-15 nM, non-cooperative.

Construct, isoform or probe ends are uncertain for at least one entry. For some assays here: A negative result means that nothing was seen under these conditions. For some assays here: At least one verdict rests on a figure or table, not on a statement of the authors. For some assays here: Whether high values mean tight binding is not given here for every scale.

Turning to “CGAACGAGGCAAACCTAGGCTAGAGGCACCGAGGCAAACTAGTGCGGGCGTGGCT (double strand) [2xCSL17mut]”, the binding result with Su(H) (CSL) (Drosophila) [1] and in the series with Su(H) (CSL) (Drosophila) [2] (Su(H) 0.94-15 nM) was “no binding” each time.
On to “CGAACGTGGGAAACCTAGGCTAGAGGCACCGTGGGAAACTAGTGCGGGCGTGGCT (double strand) [2xCSL17]”, for which the binding result is “binds” with Su(H) (CSL) (Drosophila) [1]; “binds” in series [3] (non-cooperative (C close to 1), rapidly competed by 10x cold 2xCSL17, room temperature 20 min (temporal competition: RT 10 min then 4 C)); “binds” in the series on Su(H) (CSL) + Hairless (non-cooperative); “binds” in the series with Su(H) (CSL) (Drosophila) [2] (setting [4]).
As for “CGAACGTGGGAAACCTAGGCTAGAGGCACTTCCCACGACTAGTGCGGGCGTGGCT (double strand) [1xSPS17]”, the binding result in series [3] (cooperative, room temperature 20 min (temporal competition: RT 10 min then 4 C)) was “binds”; in the series on Su(H) (CSL) + Hairless, “binds”; with Su(H) (CSL) (Drosophila) [2] (Su(H) 2.5-160 nM, additive), “binds”.
With “GCTACGAGGCAAAGGAGCAAACTGCGTTTGCCTCGTTCGTAGTGCGGGCGTGGCT (double strand) [1xSPS15mut]”, the binding result with Su(H) (CSL) (Drosophila) [2] (Su(H) 0.94-15 nM) is listed as “no binding”.
As to “GCTACGTGGGAAAGGAGCAAACTGCGTCGTGGGAATTCGTAGTGCGGGCGTGGCT (double strand) [2xCSL15]”, the binding result was “binds” in series [3] (not cooperative, room temperature 20 min (temporal competition: RT 10 min then 4 C)); “binds” in the series on Su(H) (CSL) + Hairless; “binds” in the series with Su(H) (CSL) (Drosophila) [2] (Su(H) 2.5-160 nM, additive).
Take “GCTACGTGGGAAAGGAGCAAACTGCGTTTCCCACGTTCGTAGTGCGGGCGTGGCT (double strand) [1xSPS15]”: the binding result with Su(H) (CSL) (Drosophila) [1], with Su(H) (CSL) + Hairless (non-cooperative) and with Su(H) (CSL) (Drosophila) [2] (setting [4]) was “binds” in each case. The binding signal (cooperativity factor C (Kd1/Kd2)) in series [3] (cooperative, 2NCM dissociates more slowly than from 2xCSL17, room temperature 20 min (temporal competition: RT 10 min then 4 C)) amounted to 16.9.
